# Assay results as given in PubChem BioAssay AID588590 (National Center for Advancing Translational Sciences (NCATS), 2011).
# Amino acid sequences for entries named in this document (tags omitted). A change or cut given only in a name is not applied to a line headed by its entry.
# UniProt Q9UNA4: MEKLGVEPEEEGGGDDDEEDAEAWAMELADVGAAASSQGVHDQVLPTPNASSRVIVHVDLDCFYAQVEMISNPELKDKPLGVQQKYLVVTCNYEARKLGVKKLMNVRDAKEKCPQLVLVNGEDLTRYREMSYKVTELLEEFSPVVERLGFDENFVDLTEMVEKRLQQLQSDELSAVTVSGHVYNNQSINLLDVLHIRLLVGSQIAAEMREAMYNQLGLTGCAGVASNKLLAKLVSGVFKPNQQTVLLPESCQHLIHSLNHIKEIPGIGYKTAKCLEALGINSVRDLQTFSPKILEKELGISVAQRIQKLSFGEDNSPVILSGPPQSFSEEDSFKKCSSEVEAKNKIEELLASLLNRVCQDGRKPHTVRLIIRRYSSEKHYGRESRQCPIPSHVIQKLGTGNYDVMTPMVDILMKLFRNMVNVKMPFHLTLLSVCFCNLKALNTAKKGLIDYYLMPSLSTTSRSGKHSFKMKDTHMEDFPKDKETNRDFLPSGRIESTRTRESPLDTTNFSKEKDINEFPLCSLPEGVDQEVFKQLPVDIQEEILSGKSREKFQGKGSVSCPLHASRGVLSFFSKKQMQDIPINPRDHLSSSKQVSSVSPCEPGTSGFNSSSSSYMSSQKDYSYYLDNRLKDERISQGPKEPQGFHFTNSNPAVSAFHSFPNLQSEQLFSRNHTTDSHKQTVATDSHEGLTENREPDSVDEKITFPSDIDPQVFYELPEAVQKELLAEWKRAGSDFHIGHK
# Values joined by “and” are separate entries in the source; they are usually repeats but may differ in a detail not shown here. Equal values may be shown once. Among all 390,000 compounds or so, about 4,000 (1%) were called active. Inconclusive means that the source gave no clear call. Such entries were picked first, then a sample of the others. Calls follow the shape of the dose curve; as a rule, active = well fitted inhibition curve with a large enough effect; inconclusive = small, poorly fitted or top-dose-only effect, or another doubt; inactive = no such curve, though single readings can be large or run the other way. Potencies beside an inconclusive call are fits to weak or partial responses and may not hold up.
# Target: DNA polymerase iota (Homo sapiens) (UniProt Q9UNA4)
# Test: qHTS for Inhibitors of Polymerase Iota
# Conditions: Pol iota fluorescent replication assay, 10 min; series mostly up to 115 µM; activity, negative = inhibition: at the top concentration
# How it was run: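 Fluorescent replication assay read twice, at 0 min and 10 min after adding 50 nM (final) substrate. Enzyme (10 nM) and compounds were first incubated 15 min at room temperature; enzyme-free buffer wells were negative controls.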
# Potency is read from the fitted curve at half-maximal effect.
SMILES,"activity, negative = inhibition",Potency
COc1cc(C(=O)NNC(=S)NC(=O)c2ccccc2C)cc(OC)c1OC,inactive: 8.59%,–
Cc1ccc(-n2c(O)c(/C=N/n3cnnc3)c3ccccc3c2=O)cc1,–,"inconclusive: 31.6 µM [inhibitor, single point]"
COc1ccc(N=C2S/C(=C\c3ccc(OC(C)C(=O)O)c(OC)c3)C(=O)N2CCc2c[nH]c3ccccc23)cc1 (stereo unspecified),–,"inconclusive: 7.94 µM [inhibitor, full curve]"
CCN(CC)CCCC(C)n1c2nc(=O)[nH]c(=O)c-2nc2cc(Cl)ccc21 (stereo unspecified),–,"inconclusive: 56.2 µM [inhibitor, partial curve, poor fit]"
CC(=O)Nc1c2c(nn1-c1ccc(C)cc1C)CSC2,–,"inconclusive: 50.1 µM [inhibitor, partial curve, poor fit]"
C/C(NC(=O)c1ccccc1)=C1/C(=O)CC2C1C2(C)C (stereo unspecified),–,"inconclusive: 79.4 µM [inhibitor, partial curve, poor fit]"
COc1ccc(-c2csc(NC(C)c3nc4cc(C(F)(F)F)ccc4n3CCOCCO)n2)cc1 (stereo unspecified),–,"inconclusive: 15.8 µM [inhibitor, full curve]"
OC(CNCCc1ccc(C(F)(F)F)cc1)COC(c1ccccc1)c1ccccc1 (stereo unspecified),–,"inconclusive: 7.94 µM [inhibitor, partial curve, poor fit]"
COc1ccc(C(O)(CCC(C)C)C(CN2CCOCC2)c2ccc(Cl)cc2)cc1 (stereo unspecified),–,"inconclusive: 20 µM [inhibitor, partial curve, poor fit]"
O=C(c1ccc(-c2ccccc2)cc1)N1CCN(c2ccccn2)CC1,inactive: 25.2%,–
COc1ccc(S(=O)(=O)Nc2cccc3cccnc23)c(N)c1,inactive: 13.3%,–
CC(=O)c1nnn(-c2nc(C#N)nc(N3CCOCC3)n2)c1C,–,"inconclusive: 89.1 µM [inhibitor, single point]"
Cc1cccc(NC(=O)CSc2nc3[nH]c(=O)cc(O)c3s2)c1,–,"inconclusive: 15.8 µM [inhibitor, full curve]"
NC(=S)N/N=C/c1ccccc1OC(=O)c1cc2ccccc2oc1=O,–,"inconclusive: 5.01 µM [inhibitor, full curve]"
N=C1/C(=C/c2cccn2-c2ccc([N+](=O)[O-])cc2)C(=O)N=C2SC=CN12,–,"inconclusive: 79.4 µM [inhibitor, partial curve]"
Cc1ccc2[nH]c3nc(N/N=C/c4cccc(O)c4)nnc3c2c1,–,"inconclusive: 50.1 µM [inhibitor, partial curve]"
Cc1c(N=NC2=C(O)CC(C)(C)CC2=O)c(=O)n(-c2ccccc2)n1C,–,"inconclusive: 12.6 µM [inhibitor, partial curve, poor fit]"
O=C(COC(=O)c1cccc(NS(=O)(=O)/C=C/c2ccccc2)c1)Nc1ccccc1OC(F)F,–,"inconclusive: 63.1 µM [inhibitor, partial curve, poor fit]"
O=C(C1COc2ccccc2O1)N1CCN(c2ccc([N+](=O)[O-])cc2)CC1 (stereo unspecified),–,"inconclusive: 14.1 µM [inhibitor, full curve, poor fit]"
O=C(N/N=C/c1cccc(O)c1)c1ccc(NC(=O)C2CCCCC2)cc1,–,"inconclusive: 89.1 µM [inhibitor, single point]"
Cc1nn(C)c(C)c1NC(=O)CCl,–,"inconclusive: 28.2 µM [inhibitor, partial curve, poor fit]"

SMILES,"activity, negative = inhibition",Potency
COC(=O)[C@@H](Cc1ccccc1)NC(=O)NCCc1c[nH]c2ccccc12,inactive: 30.6%,–
Cc1cccc(-c2n[nH]c(=S)n2/N=C/C=C/c2ccco2)c1,–,active: 12.6 µM
CCOC(=O)C1=C(C)N(CCO)C(=O)NC1c1ccccc1 (stereo unspecified),–,"inconclusive: 22.4 µM [inhibitor, partial curve, poor fit]"
Cc1cc(/C=C2\C(=N)N3N=C(S(C)(=O)=O)SC3=NC2=O)c(C)n1Cc1ccccc1,–,"inconclusive: 17.8 µM [inhibitor, single point]"
CC[C@]12c3[nH]c4cc(-c5ccco5)ccc4c3CCN1C(=O)[C@@H](CC(=O)NCCCOC)C[C@@H]2C(=O)N1CCN(C(=O)c2ccco2)CC1,–,"inconclusive: 35.5 µM [inhibitor, partial curve, poor fit]"
O=C(O)c1ccc2c(c1)C(=O)/C(=C/c1ccccc1)C2=O,–,"inconclusive: 15.8 µM [inhibitor, full curve, poor fit]"
Cc1cc(C(=O)N2CC=C(c3ccccc3)CC2)c2ccccc2n1,–,"inconclusive: 39.8 µM [inhibitor, partial curve, poor fit]"
O=C(/C=C/c1ccco1)Nc1ccc2nn(-c3ccccc3)nc2c1,–,"inconclusive: 22.4 µM [inhibitor, partial curve]"
CCOc1ccc(NS(=O)(=O)c2ccc(C(=O)NCC(c3ccco3)N(C)C)cc2)cc1 (stereo unspecified),–,"inconclusive: 89.1 µM [inhibitor, partial curve, poor fit]"
Nc1sc(-c2ccccc2)c(Cc2ccccc2)c1C(=O)O,–,"inconclusive: 39.8 µM [inhibitor, single point]"
Cc1nnc(NC(=O)c2nc(S(=O)(=O)Cc3ccccc3)ncc2Cl)s1,–,"inconclusive: 12.6 µM [inhibitor, partial curve] and inconclusive: 25.1 µM [inhibitor, single point]"
O=C(CCCCCn1c(SCC(=O)c2ccccc2)nc2ccccc2c1=O)NCc1ccco1,–,"inconclusive: 3.98 µM [inhibitor, full curve, poor fit]"
O=C(O)/C(=C\c1cn(-c2ccccc2)nc1-c1ccc(Cl)cc1)NC(=O)c1ccccc1,–,"inconclusive: 100 µM [inhibitor, single point]"
O=C1CN(C(=O)c2c(F)cccc2F)C(c2ccc(F)cc2)c2cc(Br)ccc2N1 (stereo unspecified),–,"inconclusive: 11.2 µM [inhibitor, partial curve, poor fit]"
COc1ccccc1-[n+]1c(C)cc(/C=C2\Sc3ccccc3N2C)cc1C,inactive: -11.5%,–
CCOC(=O)Cc1cc(=O)n2[nH]cc(-c3ccc(Cl)cc3)c2n1,–,"inconclusive: 70.8 µM [inhibitor, single point]"
Cc1coc(C)c1C(=O)CC1(O)C(=O)N(CCc2ccccc2)c2ccccc21 (stereo unspecified),–,"inconclusive: 11.2 µM [inhibitor, partial curve]"
Cn1c(=O)c2c(SCC(=O)NCc3ccco3)nc(-c3ccccc3Cl)nc2n(C)c1=O,–,"inconclusive: 22.4 µM [inhibitor, partial curve, poor fit]"
Cc1ccc(NC(=O)CSc2nc3c(c(=O)[nH]2)CN(Cc2ccc4c(c2)OCO4)CC3)cc1C,inactive: 93.1%,–
O=C(N1CCOCC1)N1CCN(c2ccc(F)cc2)CC1,–,"inconclusive: 79.4 µM [inhibitor, single point]"
N#Cc1c(N)nc2c3c(sc(=N)c2c1N)NC(=O)CC3c1ccccc1 (stereo unspecified),inactive: 29.7%,–

# Among those listed so far, these have a cyano group:
SMILES,"activity, negative = inhibition",Potency
CC(=O)c1nnn(-c2nc(C#N)nc(N3CCOCC3)n2)c1C,–,"inconclusive: 89.1 µM [inhibitor, single point]"
N#Cc1c(N)nc2c3c(sc(=N)c2c1N)NC(=O)CC3c1ccccc1 (stereo unspecified),inactive: 29.7%,–

# The results go on.

SMILES,"activity, negative = inhibition",Potency
CCCOc1ccc(C2c3c(-c4ccccc4O)n[nH]c3C(=O)N2Cc2ccncc2)cc1OCC (stereo unspecified),inactive: -7.31%,–
Cc1cc2nc3ccc(=[N+](C)C)cc-3sc2cc1N,–,active: 17.8 µM
Cc1cccc(NC(=O)C(=O)NCC(c2cccnc2)N2CCOCC2)c1 (stereo unspecified),inactive: 37.1%,–
O=P(c1ccccc1)(c1ccccc1)C(O)c1ccccn1 (stereo unspecified),–,"inconclusive: 31.6 µM [inhibitor, partial curve, poor fit]"
Cc1c(CC(=O)NCC(=O)O)c(=O)oc2cc3c(cc12)CCC(C)(C)O3,–,"inconclusive: 79.4 µM [inhibitor, single point]"
COC(=O)c1ccc(N2NC(=O)/C(=C/c3cc(OC)c(O)c(OC)c3)C2=O)cc1,–,"inconclusive: 25.1 µM [inhibitor, partial curve, poor fit]"
COc1cc(OC)cc(-n2nc(C(=O)N3CC(C)CC(C)C3)c3ccccc3c2=O)c1 (stereo unspecified),inactive: 1.9% [at 58.9 µM],–
Cc1ccc(Nc2c(-c3ccc(C)cc3)nc3cnccn23)cc1,inactive: 9.48%,–
CCOC(=O)C1=C(C)N(CCCC(=O)O)C(=O)NC1c1ccc(OC)cc1 (stereo unspecified),inactive: 27.6%,–
COC(=O)c1ccccc1-c1ccc(/C=N/NC(=O)c2cc3ccccc3o2)o1,inactive: -14.2%,–
CCN(CC)CCn1c(SCC(=O)NCc2ccco2)nc2c(sc3ccccc32)c1=O,–,"inconclusive: 39.8 µM [inhibitor, single point]"
COc1ccc(/C=C/C(=O)C2C(=O)C=C(C)OC2=O)cc1O (stereo unspecified),–,"inconclusive: 35.5 µM [inhibitor, partial curve, poor fit]"
C[C@]12CC[C@H](O)C[C@@H]1CC[C@@H]1[C@@H]2CC[C@@]2(C)[C@H]1CCC(=O)[C@]21CCCO1,–,"inconclusive: 63.1 µM [inhibitor, partial curve, poor fit]"
CSCCC(NC(=O)c1ccco1)C(=O)OCC(=O)N1c2ccccc2NC(=O)C1(C)C (stereo unspecified),–,"inconclusive: 79.4 µM [inhibitor, single point]"
CCOC(=O)CSc1nc2cc3c(cc2c(=O)n1CCCC(=O)NCc1ccc2c(c1)OCO2)OCO3,inactive: -0.538%,–
CC(=O)Nc1cccc(OCCCOc2cccc([N+](=O)[O-])c2)c1,inactive: 17.7%,–
O=c1c2cc(Cl)ccc2oc2nc3n(c(=O)c12)CCCS3,–,"inconclusive: 31.6 µM [inhibitor, partial curve, poor fit]"
O=C(Cn1nc(-c2ccccc2F)ccc1=O)Nc1ccc(S(=O)(=O)N2CCCCCC2)cc1,–,"inconclusive: 79.4 µM [inhibitor, partial curve, poor fit]"
Cc1ccc2occ(CC(=O)Nc3ccc(S(N)(=O)=O)cc3)c2c1,–,"inconclusive: 100 µM [inhibitor, partial curve, poor fit]"
